Source: PubChem BioAssay (NCATS)
Values joined by “and” are separate entries in the source; they are usually repeats but may differ in a detail not shown here. Equal values may be shown once. Inconclusive means that the source gave no clear call. Such entries were picked first, then a sample of the others. Potencies beside an inconclusive call are fits to weak or partial responses and may not hold up. Active and inactive are the calls of the source. The call rests on the fitted dose curve; in most records, active means well fitted cell-killing curve with a large enough effect; inconclusive means small, poorly fitted or top-dose-only effect, or effect the other way; inactive means no such curve, though single readings can be large or run the other way.

assay: Quantitative highthroughput screen to assess conditional lethalithy of SEM cells grown in RPMI1640 with unreated serum (RPMI+s) (AID 1963883); conditions: SEM B-ALL cells, CellTiter-Glo viability, 48 h; viability: at 45.8 µM (top of the series); further: nearly all actives have a fitted effect of over 35% in size
Method in brief: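 Each medium arm—HPLM with 10% dialyzed FBS, or RPMI1640 with 5 mM glucose and 10% untreated or dialyzed FBS—was screened against an 11-point, 3-fold compound titration for 48 h at 37 °C, with CellTiter-Glo luminescence as endpoint.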
Potency means the concentration at half of the fitted maximal effect.

SMILES	Potency
CC(=Cc1ccccc1)C=C1SC(=S)N(CC(=O)O)C1=O	active: 5.9 µM
CN1CCN(c2cccc(Nc3nc4c(-c5ccc(S(C)(=O)=O)cc5)cccn4n3)c2)CC1	inconclusive: 2.64 µM [cytotoxic, full curve]
COc1cc(N2CCC(O)CC2)ccc1Nc1cc(Nc2ccccc2S(=O)(=O)C(C)C)c2cc[nH]c2n1	inconclusive: 0.467 µM [cytotoxic, full curve, poor fit]
CCCn1c(=O)c2[nH]c(C34CC5CC3C[C@@H](C5)C4)nc2n(CCC)c1=O	inconclusive: 0.0053 µM [rising, full curve]
Cc1nc(NC(=O)N2CCC[C@@H]2C(N)=O)sc1-c1ccnc(C(C)(C)C(F)(F)F)c1	inconclusive: 2.96 µM [cytotoxic, partial curve, poor fit]
COc1ccc([C@@H]2CC(=O)c3c(O)cc(O[C@@H]4O[C@H](CO[C@@H]5O[C@@H](C)[C@H](O)[C@@H](O)[C@@H]5O)[C@@H](O)[C@H](O)[C@@H]4O)cc3O2)cc1O	inactive and inconclusive: 33.2 µM [cytotoxic, single point]
OCCn1cc(-c2ccc3c(c2)CCC3=NO)c(-c2ccncc2)n1	inactive
CC=C(C(=CC)c1ccc(O)cc1)c1ccc(O)cc1	inconclusive: 37.2 µM [cytotoxic, single point]
CC[C@H]1OC(=O)[C@H](C)C(=O)[C@H](C)[C@@H](O[C@H]2O[C@H](C)C[C@H](N(C)C)[C@@H]2O)[C@](C)(OC)C[C@@H](C)C(=O)[C@H](C)[C@H]2N(CCCCn3cnc(-c4cccnc4)c3)C(=O)O[C@]12C	inactive
C[C@H]1[C@H](O)O[C@@H]2O[C@@]3(C)CC[C@@H]4[C@H](C)CC[C@@H]1[C@@]24OO3	active: 4.69 µM
O=c1c(-c2ccc(O)cc2)coc2cc(O[C@@H]3O[C@H](CO)[C@H](O)[C@H](O)[C@H]3O)ccc12	inconclusive: 20.9 µM [cytotoxic, partial curve]
O=C1NCCc2[nH]c(-c3ccncc3)cc21	active: 13.2 µM
C[C@H]1C[C@@H]2[C@@H]([C@@H](O)C[C@@]3(C)[C@H]2CC[C@]3(O)C(=O)CO)[C@@]2(C)C=CC(=O)C=C12	inconclusive: 0.59 µM [cytotoxic, full curve]
O=C(C=Cc1cccc(S(=O)(=O)Nc2ccccc2)c1)NO	active: 0.605 µM
CC=CC1=C(C(=O)O)N2C(=O)[C@H](NC(=O)[C@H](N)c3ccc(O)cc3)[C@@H]2SC1	inactive
O=C(O)CCCc1c[nH]c2ccccc12	inactive
Cc1cnc(Nc2ccc(F)cc2Cl)nc1-c1c[nH]c(C(=O)N[C@H](CO)c2cccc(Cl)c2)c1	inconclusive: 23.5 µM [cytotoxic, partial curve]
Nc1ncnc2c1ncn2[C@@H]1O[C@H](CO)[C@@H](O)[C@@H]1O	inconclusive: 9.35 µM [cytotoxic, full curve, poor fit]
COc1cc(N2CCN(C)CC2)ccc1Nc1nc(N)c(C(=O)c2c(Cl)cccc2Cl)s1	active: 20.9 µM
NC1=N[C@H]2[C@H](CS[C@H]2CCCCC(=O)O)N1	inactive
O=C(C=Cc1c(C(=O)O)[nH]c2cc(Cl)cc(Cl)c12)Nc1ccccc1	inconclusive: 37.2 µM [cytotoxic, single point]
CCCCN1CCC(CNC(=O)c2c3n(c4ccccc24)CCCO3)CC1	inactive
O=C(O)c1ccccc1C(=O)Nc1ccc(-c2ccccc2)cc1	inconclusive: 0.0012 µM [rising, full curve]
O=C1Cc2cc(CCN3CCN(c4nsc5ccccc45)CC3)c(Cl)cc2N1	inconclusive: 1.87 µM [cytotoxic, partial curve, poor fit]
Cc1ccc(CN2CCNCC2)cc1NC(=O)CNc1ccc(F)c(F)c1	inactive
CC(C)=CCCC(C)=CCCC(C)=CCCC(C)=CCCC(C)=CCCC(C)=CCCC(C)=CCCC(C)=CCCC(C)=CCO	inconclusive: 1.05 µM [cytotoxic, full curve, poor fit]

3 structures out of the list, ordered by number of heavy atoms, low to high:
SMILES	Potency
CC(=Cc1ccccc1)C=C1SC(=S)N(CC(=O)O)C1=O	active: 5.9 µM
Cc1ccc(CN2CCNCC2)cc1NC(=O)CNc1ccc(F)c(F)c1	inactive
COc1cc(N2CCC(O)CC2)ccc1Nc1cc(Nc2ccccc2S(=O)(=O)C(C)C)c2cc[nH]c2n1	inconclusive: 0.467 µM [cytotoxic, full curve, poor fit]
